Results as given in PubChem BioAssay AID743142 (Broad Institute, 2013).
The inconclusive results got no clear call from the source; some entries with a clear call stand among them for comparison. Activity calls are given as the source filed them.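 How the source made its calls: active means sample lowering the cell viability signal whose fitted half-effect dose is at or below its top tested dose; inconclusive means flat fit with 30 to 70 percent loss, or poor fit; inactive means the rest, including effects in the wrong direction.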

Test: HEK293T viability loss – cell-based, ATP luminescence, dry powder, Set6, cytotoxicity control, dose response (AID 743142)
Details: ATP luminescence (CellTiter-Glo), 72 h; at 26 µM (top of the series)

Row | SMILES | activity change, negative = cytotoxicity
1 | O=C(CCNC(=O)c1ccc(Cl)cc1)N[C@@H]1CCc2ccccc21 | inconclusive: -50.5%
2 | O=C(CCCNC(=O)c1ccc(OC(F)(F)F)cc1)N[C@@H]1CCCc2ccccc21 | inactive: 48.5%
3 | O=C(CCn1cnc2ccccc2c1=O)NC1CCCc2ccccc21 (stereo not drawn) | inconclusive: -45.3%
